PubChem BioAssay AID1259264 | Sanger Institute, 2017
This is an unselected part of 794 reagents tested. 15 of them (1.9%) were called active. 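Calls rest on knock-down alone at z-score below -3; synergy scores with the three drugs do not decide them.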 A number with no mark means an inactive call. No viability above 1 is reported: the scale is capped. Not all columns of the deposit are shown. Not stated in the record: the amount of reagent, the time to read-out.

Assay: 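Kinases whose loss cuts CL40 colorectal cancer cell survival, alone or with drugs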 (primary screen)
System: CL40 human colorectal cancer cells
Reagents: siRNA pool against human genes
Treatment: DMSO, or an anchor drug: BYL719 at 1 µM, cetuximab at 5 µg/ml, or trametinib at 10 nM
Measured: 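Viability as a fraction of non-targeting pool control (replicates averaged), control-based robust z-score, plus averaged synergy for each drug: BYL719 1 µM, cetuximab 5 µg/ml, trametinib 10 nM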
Scale: robust z-score, siRNA alone and viability, siRNA alone: higher = more viable cells; synergy score with BYL719: higher = stronger combined killing with BYL719
Active means: 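a gene counts as essential when knock-down without drug gives a robust z-score below -3, meaning fewer cells; synergy scores play no part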
Calls: active = essential (lowers viability alone); inactive = not essential

Target gene	robust z-score, siRNA alone	viability, siRNA alone (fraction of control)	synergy score with BYL719
CDC42BPB (CDC42 binding protein kinase beta)	0.539	1	-0.0165
CLK1 (CDC like kinase 1)	-0.305	0.939	-0.207
TAOK1 (TAO kinase 1)	0.539	1	-0.0832
MAPK4 (mitogen-activated protein kinase 4)	0.539	1	-0.142
ROR1 (ROR family WNT receptor 1)	0.539	1	-0.156
KSR2 (kinase suppressor of ras 2)	0.323	0.985	-0.0194
MTOR (mechanistic target of rapamycin kinase)	-1.41	0.861	-0.0722
GK2 (glycerol kinase 2)	0.0362	0.964	-0.0885
LMTK2 (lemur tail kinase 2)	0.539	1	-0.0195
FER (FER tyrosine kinase)	0.276	0.981	-0.0413
SBK1 (SH3 domain binding kinase 1)	0.539	1	-0.115
RPS6KA5 (ribosomal protein S6 kinase A5)	-1.23	0.873	-0.0643
COQ8B (coenzyme Q8B)	0.539	1	-0.149
PRP4K (pre-mRNA processing factor kinase PRP4K)	0.464	0.995	0.0885
MAST3 (microtubule associated serine/threonine kinase 3)	0.539	1	-0.0633
PDGFRL (platelet derived growth factor receptor like)	0.355	0.987	-0.109
HASPIN (histone H3 associated protein kinase)	-0.741	0.908	-0.0319
SMAD2 (SMAD family member 2)	-0.261	0.943	-0.0771
IRAK2 (interleukin 1 receptor associated kinase 2)	0.197	0.975	-0.144
KSR1 (kinase suppressor of ras 1)	-1.7	0.839	0.0259
BMAL1 (basic helix-loop-helix ARNT like 1)	-0.0891	0.955	-0.0022
AMHR2 (anti-Mullerian hormone receptor type 2)	-0.61	0.918	-0.0822
PXK (PX domain containing serine/threonine kinase like)	0.539	1	-0.0444
RIPK3 (receptor interacting serine/threonine kinase 3)	0.539	1	-0.156
MYLK3 (myosin light chain kinase 3)	0.485	0.996	-0.159
AK5 (adenylate kinase 5)	-0.594	0.919	-0.048
CSNK1E (casein kinase 1 epsilon)	0.0253	0.963	-0.161
EGFR (epidermal growth factor receptor)	-0.348	0.936	-0.0779
KIT (KIT proto-oncogene, receptor tyrosine kinase)	0.539	1	-0.0818
CERT1 (ceramide transporter 1)	0.539	1	-0.0146
APC (APC regulator of Wnt signaling pathway)	-0.686	0.912	-0.23
MAPK14 (mitogen-activated protein kinase 14)	0.234	0.978	-0.038
SPHK2 (sphingosine kinase 2)	-0.346	0.937	-0.101
PTGS1 (prostaglandin-endoperoxide synthase 1)	-0.349	0.936	-0.0759
PHKA2 (phosphorylase kinase regulatory subunit alpha 2)	-0.663	0.914	-0.114
ARID1A (AT-rich interaction domain 1A)	-0.684	0.912	-0.0742
PTEN (phosphatase and tensin homolog)	0.539	1	-0.141
LRRK1 (leucine rich repeat kinase 1)	0.539	1	-0.0305
PIKFYVE (phosphoinositide kinase, FYVE-type zinc finger containing)	-0.648	0.915	-0.0722
PAK1 (p21 (RAC1) activated kinase 1)	-0.0926	0.955	-0.148
CDK16 (cyclin dependent kinase 16)	-0.00137	0.961	-0.164
NEK9 (NIMA related kinase 9)	-0.637	0.916	-0.176
EPHA2 (EPH receptor A2)	0.539	1	-0.0576
NME2 (NME/NM23 nucleoside diphosphate kinase 2)	0.396	0.99	-0.118
PASK (PAS domain containing serine/threonine kinase)	-0.684	0.912	-0.0409
CAMK1 (calcium/calmodulin dependent protein kinase I)	0.298	0.983	0.0262
RIOK1 (RIO kinase 1)	-1.58	0.848	-0.116
GALK1 (galactokinase 1)	-0.15	0.951	0.00893
CLK2 (CDC like kinase 2)	0.539	1	-0.0801
DBF4 (DBF4-CDC7 kinase regulatory subunit)	0.539	1	-0.129

Reprinted from the entries so far, 8 entries:
Target gene	robust z-score, siRNA alone	viability, siRNA alone (fraction of control)	synergy score with BYL719
MAST3 (microtubule associated serine/threonine kinase 3)	0.539	1	-0.0633
PDGFRL (platelet derived growth factor receptor like)	0.355	0.987	-0.109
HASPIN (histone H3 associated protein kinase)	-0.741	0.908	-0.0319
SMAD2 (SMAD family member 2)	-0.261	0.943	-0.0771
IRAK2 (interleukin 1 receptor associated kinase 2)	0.197	0.975	-0.144
KSR1 (kinase suppressor of ras 1)	-1.7	0.839	0.0259
BMAL1 (basic helix-loop-helix ARNT like 1)	-0.0891	0.955	-0.0022
AMHR2 (anti-Mullerian hormone receptor type 2)	-0.61	0.918	-0.0822
